Laboratory results reported in article PMC7492734.

By UniProt entry, the sequences of proteins in these tests, tags left out. Where a name states a change or a piece, a line headed by the entry shows the natural chain unless it says otherwise. Residues count along the entry.
UniProt P05187: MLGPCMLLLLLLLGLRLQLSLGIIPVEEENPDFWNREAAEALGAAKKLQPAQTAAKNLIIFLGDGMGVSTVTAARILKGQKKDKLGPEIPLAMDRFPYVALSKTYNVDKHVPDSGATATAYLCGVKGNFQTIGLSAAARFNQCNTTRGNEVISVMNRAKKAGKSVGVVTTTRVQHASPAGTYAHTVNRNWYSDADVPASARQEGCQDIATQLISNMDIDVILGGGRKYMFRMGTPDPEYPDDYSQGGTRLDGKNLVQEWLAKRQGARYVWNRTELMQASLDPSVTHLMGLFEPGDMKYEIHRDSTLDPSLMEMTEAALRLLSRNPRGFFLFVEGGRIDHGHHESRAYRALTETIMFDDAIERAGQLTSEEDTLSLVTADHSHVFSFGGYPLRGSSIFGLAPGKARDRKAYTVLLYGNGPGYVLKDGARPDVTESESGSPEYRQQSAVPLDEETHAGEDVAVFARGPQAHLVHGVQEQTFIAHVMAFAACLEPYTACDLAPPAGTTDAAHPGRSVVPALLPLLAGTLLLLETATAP
UniProt P11021, residues 19-654: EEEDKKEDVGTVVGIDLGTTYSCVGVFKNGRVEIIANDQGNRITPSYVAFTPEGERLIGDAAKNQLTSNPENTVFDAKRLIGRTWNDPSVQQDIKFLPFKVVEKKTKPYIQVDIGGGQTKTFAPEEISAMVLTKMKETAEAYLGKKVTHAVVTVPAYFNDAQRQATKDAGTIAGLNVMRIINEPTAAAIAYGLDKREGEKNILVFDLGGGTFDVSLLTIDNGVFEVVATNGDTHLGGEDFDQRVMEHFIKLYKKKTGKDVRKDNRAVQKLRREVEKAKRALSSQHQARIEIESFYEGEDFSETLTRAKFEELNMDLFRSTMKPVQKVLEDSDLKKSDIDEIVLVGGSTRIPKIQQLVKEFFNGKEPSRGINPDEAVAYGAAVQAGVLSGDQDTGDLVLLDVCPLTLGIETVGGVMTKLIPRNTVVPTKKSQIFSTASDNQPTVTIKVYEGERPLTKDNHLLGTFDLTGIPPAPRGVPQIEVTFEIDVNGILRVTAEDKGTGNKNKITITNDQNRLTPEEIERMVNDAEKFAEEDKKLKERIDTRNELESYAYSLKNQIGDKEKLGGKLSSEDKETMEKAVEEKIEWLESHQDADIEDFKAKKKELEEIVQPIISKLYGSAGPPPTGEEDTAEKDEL

Biological target: C-terminal 2×Flag-tagged placental alkaline phosphatase (ALPP-2×Flag) (human) (UniProt P05187)
Assay: affinity purification with mass spectrometry; uninfected Flag-ALPP-overexpressing U-251 MG cells; Flag immunoprecipitate stained with silver and Coomassie; the distinctive 78-kDa protein identified by LC-MS

In the case of “BIP (GRP78), endogenous (from UniProt P11021 19-654)”, the binding is reported as “binds”.

No constants are given. Whether binding was seen depends on the method and setting. Binding seen in cells or lysates may run through a third protein. Here binding means that the protein was enriched with, or labelled near, the bait; the list need not be complete.
